Reference: the supplement of paper PMC10849652
The other results are listed elsewhere or left out.

The chains behind the UniProt entries cited, without tags or fusion partners. Where a name states a change or a piece, a line headed by the entry shows the natural chain unless it says otherwise.
UniProt O95147: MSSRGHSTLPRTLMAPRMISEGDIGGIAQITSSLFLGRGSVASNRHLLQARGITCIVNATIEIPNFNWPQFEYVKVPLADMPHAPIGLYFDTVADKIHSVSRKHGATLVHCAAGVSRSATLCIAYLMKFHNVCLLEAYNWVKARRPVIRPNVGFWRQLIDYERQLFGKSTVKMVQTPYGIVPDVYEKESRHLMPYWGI
UniProt Q14156: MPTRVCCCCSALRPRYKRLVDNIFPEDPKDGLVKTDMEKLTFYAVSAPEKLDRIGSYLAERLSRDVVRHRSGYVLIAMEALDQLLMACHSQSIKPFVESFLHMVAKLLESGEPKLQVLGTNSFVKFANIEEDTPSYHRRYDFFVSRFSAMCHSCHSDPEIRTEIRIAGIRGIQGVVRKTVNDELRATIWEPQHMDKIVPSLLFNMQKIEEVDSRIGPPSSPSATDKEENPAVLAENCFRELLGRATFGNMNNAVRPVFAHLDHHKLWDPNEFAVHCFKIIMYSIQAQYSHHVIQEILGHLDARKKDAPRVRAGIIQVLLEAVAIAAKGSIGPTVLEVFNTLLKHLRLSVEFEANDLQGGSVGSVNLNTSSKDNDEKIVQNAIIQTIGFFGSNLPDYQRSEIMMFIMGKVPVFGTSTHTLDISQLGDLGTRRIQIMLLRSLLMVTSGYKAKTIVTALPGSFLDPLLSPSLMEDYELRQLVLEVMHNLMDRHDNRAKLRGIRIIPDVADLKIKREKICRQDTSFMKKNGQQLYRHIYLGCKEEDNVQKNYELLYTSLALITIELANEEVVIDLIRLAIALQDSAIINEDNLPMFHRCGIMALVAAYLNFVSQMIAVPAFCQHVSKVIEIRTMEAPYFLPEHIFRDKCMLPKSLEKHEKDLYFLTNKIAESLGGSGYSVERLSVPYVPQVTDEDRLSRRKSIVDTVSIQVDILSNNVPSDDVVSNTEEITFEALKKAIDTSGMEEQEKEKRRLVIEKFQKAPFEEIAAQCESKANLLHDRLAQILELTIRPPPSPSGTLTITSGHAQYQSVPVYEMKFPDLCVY
UniProt Q5VUJ9: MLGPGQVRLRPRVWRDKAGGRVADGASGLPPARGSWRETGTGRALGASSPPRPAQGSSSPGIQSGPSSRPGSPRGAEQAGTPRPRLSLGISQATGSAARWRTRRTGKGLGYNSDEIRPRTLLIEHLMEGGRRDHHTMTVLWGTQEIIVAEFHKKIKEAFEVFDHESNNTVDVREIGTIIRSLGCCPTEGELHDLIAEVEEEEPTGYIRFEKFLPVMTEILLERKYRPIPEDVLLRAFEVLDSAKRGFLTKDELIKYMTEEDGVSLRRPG
UniProt Q8WTR2: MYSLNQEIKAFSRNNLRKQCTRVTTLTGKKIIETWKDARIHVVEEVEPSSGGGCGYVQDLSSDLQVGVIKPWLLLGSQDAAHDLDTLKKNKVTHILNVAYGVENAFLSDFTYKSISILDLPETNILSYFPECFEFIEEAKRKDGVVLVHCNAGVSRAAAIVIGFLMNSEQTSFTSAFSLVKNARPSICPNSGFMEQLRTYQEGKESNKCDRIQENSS
UniProt Q8NCM8: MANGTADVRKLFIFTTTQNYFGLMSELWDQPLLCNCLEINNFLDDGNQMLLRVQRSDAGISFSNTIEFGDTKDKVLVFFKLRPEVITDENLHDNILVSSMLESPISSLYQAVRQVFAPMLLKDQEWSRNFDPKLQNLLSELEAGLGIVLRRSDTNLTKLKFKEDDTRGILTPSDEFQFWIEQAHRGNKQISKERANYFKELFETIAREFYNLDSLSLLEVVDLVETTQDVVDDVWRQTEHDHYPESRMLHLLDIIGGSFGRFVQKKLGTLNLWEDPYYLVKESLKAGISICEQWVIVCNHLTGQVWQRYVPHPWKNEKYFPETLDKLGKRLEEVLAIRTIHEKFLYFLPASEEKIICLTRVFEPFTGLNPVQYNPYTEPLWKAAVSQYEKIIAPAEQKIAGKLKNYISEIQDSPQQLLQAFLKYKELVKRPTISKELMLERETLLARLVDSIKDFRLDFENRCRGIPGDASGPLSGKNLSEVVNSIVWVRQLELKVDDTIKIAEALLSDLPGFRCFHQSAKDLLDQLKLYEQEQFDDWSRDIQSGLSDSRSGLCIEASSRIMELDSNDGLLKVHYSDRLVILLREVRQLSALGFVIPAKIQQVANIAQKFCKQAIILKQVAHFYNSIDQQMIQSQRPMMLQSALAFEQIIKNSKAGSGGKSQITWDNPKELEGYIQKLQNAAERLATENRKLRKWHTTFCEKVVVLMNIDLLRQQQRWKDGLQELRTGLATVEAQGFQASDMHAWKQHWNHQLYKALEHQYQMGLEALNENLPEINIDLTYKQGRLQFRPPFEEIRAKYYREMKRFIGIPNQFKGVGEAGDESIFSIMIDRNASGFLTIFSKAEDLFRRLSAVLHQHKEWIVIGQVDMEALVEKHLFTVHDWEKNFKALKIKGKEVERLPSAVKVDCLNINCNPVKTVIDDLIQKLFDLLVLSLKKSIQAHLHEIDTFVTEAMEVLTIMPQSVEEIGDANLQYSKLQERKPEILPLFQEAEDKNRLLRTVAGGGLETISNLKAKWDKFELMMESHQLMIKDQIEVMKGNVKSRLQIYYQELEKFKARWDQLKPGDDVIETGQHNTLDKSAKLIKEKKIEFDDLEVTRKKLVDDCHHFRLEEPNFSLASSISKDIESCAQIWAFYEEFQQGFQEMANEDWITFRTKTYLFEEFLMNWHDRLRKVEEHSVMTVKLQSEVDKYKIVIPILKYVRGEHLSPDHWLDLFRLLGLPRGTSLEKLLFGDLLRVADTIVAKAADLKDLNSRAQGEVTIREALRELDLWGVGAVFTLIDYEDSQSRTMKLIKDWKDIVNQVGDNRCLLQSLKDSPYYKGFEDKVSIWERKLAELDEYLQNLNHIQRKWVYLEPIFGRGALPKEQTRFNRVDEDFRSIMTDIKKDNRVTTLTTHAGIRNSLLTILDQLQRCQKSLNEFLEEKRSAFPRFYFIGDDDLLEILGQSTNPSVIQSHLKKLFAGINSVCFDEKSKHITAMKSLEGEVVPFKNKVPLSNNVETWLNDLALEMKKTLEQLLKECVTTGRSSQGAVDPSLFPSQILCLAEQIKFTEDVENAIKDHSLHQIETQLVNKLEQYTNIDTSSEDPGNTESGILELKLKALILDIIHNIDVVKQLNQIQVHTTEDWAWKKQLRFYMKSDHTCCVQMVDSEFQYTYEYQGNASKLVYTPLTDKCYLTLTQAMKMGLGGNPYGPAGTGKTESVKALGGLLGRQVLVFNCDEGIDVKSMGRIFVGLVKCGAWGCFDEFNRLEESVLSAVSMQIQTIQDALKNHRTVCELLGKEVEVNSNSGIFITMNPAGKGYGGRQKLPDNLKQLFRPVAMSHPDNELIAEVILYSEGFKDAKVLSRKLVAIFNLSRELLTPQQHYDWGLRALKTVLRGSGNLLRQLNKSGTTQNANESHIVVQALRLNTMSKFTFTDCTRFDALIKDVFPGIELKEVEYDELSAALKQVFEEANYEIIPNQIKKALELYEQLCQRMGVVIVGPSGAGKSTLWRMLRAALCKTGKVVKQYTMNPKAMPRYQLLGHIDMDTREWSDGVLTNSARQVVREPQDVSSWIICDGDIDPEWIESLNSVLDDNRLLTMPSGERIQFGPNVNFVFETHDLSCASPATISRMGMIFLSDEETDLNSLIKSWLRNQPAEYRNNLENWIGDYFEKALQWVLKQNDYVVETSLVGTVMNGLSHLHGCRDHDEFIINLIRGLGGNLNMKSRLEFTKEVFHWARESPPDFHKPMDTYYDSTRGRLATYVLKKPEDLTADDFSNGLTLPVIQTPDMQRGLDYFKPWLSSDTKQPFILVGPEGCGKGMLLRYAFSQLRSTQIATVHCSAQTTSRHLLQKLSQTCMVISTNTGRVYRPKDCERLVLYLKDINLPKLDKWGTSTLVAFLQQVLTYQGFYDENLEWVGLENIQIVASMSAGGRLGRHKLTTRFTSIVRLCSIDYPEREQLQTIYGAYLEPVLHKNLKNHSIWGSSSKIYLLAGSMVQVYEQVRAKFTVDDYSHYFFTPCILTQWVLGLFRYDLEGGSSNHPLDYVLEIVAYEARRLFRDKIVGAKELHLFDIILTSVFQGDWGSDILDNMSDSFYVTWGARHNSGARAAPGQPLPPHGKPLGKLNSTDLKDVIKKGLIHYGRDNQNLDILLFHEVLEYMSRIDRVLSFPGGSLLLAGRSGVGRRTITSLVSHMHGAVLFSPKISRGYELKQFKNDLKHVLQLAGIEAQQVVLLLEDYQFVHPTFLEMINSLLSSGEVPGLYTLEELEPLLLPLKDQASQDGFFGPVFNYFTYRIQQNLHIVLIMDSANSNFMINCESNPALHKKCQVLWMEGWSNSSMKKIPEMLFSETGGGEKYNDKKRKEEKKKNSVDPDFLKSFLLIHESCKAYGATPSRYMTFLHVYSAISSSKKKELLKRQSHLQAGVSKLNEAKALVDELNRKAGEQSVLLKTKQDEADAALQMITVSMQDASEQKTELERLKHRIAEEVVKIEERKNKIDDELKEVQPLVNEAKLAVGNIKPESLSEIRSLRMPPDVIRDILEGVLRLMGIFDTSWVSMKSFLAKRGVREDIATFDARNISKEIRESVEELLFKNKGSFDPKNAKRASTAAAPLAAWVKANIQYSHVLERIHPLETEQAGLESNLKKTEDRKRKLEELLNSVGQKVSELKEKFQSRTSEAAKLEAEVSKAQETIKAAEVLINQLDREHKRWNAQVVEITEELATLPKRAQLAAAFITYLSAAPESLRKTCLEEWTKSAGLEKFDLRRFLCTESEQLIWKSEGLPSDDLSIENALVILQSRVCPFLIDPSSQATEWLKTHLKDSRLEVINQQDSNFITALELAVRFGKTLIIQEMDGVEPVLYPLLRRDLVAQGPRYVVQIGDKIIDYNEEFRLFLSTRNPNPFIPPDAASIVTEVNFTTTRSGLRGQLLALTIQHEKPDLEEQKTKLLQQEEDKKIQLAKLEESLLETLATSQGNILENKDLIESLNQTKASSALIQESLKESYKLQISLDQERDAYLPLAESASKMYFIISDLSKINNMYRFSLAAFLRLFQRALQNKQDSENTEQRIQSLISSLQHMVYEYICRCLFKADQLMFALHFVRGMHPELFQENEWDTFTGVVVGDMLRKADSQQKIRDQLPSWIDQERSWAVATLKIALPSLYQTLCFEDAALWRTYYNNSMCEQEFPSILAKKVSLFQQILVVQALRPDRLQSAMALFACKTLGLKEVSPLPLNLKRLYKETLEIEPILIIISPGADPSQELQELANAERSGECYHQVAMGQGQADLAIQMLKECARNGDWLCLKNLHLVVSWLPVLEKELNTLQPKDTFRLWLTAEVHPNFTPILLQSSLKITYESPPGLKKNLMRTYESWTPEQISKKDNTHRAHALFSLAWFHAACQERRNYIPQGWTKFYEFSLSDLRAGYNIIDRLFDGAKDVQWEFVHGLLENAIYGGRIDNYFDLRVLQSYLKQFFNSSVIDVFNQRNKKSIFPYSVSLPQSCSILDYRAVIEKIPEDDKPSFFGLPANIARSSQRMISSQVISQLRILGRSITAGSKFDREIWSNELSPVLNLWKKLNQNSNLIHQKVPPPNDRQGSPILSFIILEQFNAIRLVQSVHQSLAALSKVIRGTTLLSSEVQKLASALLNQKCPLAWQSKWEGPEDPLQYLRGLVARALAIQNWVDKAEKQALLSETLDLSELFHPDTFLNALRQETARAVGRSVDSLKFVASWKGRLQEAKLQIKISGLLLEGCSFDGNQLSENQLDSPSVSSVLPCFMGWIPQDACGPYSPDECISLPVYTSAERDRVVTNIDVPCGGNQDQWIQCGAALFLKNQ
UniProt Q9NZJ0: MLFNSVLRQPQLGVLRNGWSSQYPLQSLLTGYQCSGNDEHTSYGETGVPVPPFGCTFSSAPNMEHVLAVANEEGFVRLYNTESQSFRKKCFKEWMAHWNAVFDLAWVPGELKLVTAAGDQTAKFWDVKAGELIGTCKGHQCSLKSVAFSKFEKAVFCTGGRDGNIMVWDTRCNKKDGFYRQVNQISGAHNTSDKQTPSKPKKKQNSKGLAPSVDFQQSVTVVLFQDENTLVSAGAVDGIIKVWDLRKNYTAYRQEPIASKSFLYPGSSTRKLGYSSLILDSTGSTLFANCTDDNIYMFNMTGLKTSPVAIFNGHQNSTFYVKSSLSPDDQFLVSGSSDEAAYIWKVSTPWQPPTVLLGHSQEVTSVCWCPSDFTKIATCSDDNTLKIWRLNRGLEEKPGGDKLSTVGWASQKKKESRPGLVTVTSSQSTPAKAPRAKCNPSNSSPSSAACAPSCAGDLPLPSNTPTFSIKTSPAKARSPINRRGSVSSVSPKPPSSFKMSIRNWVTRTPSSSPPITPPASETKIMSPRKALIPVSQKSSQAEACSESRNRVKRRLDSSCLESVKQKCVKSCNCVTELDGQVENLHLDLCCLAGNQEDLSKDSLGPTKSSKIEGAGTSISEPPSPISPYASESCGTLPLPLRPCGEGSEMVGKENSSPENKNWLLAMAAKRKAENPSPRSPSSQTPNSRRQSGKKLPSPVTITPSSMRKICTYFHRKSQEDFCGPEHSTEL

Experiments:
Experiment in all cases: log2 fold change, soluble protein after heating vs DMSO (PISA); higher = thermal stabilisation; K562 lysate, 10 uM; active = over 0.2 and 3.5 SD of the protein, either way, in both replicates (recomputed)
nilotinib = compound: Cc1cn(-c2cc(NC(=O)c3ccc(C)c(Nc4nccc(-c5cccnc5)n4)c3)cc(C(F)(F)F)c2)cn1 [nilotinib]
In short: (§1)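 K562 pellets were dounce-homogenised in PBS pH 7.4 with 1 mM MgCl2, and the crude extract at 1 mg/mL protein was treated with 10 μM compound for 30 min. Aliquots were heated for 3 min across 48°C-58°C, pooled, and brought to 0.5% NP-40 at 4°C; soluble protein was the supernatant after 21,000xg for 90 min. Soluble protein was quantified by TMTpro 16plex LC-MS/MS with channel sums equalised, and reported as log2 fold change in thermal stability against DMSO controls, with values from duplicates.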

[1] = compound: Cc1nc(Nc2n[nH]c3c2CN(C(=O)N[C@H](CN(C)C)c2ccccc2)C3(C)C)c2sccc2n1
In short: as §1

[2] = compound: Cc1ncc(-c2ccnc(Nc3ccc(S(C)(=O)=O)cc3)n2)n1C(C)C
In short: as §1

quisinostat = compound: Cn1cc(CNCC2CCN(c3ncc(C(=O)NO)cn3)CC2)c2ccccc21 [quisinostat]
In short: as §1

tipifarnib = compound: Cn1cncc1[C@@](N)(c1ccc(Cl)cc1)c1ccc2c(c1)c(-c1cccc(Cl)c1)cc(=O)n2C [tipifarnib]
In short: as §1

[3] = compound: NC(=O)Nc1cc(-c2cccc(F)c2)sc1C(=O)N[C@H]1CCCNC1
In short: as §1

[4] = compound: NC(=O)c1cnc(N[C@@H]2CCCC[C@@H]2N)nc1Nc1cccc(-n2nccn2)c1
In short: as §1

[5] = compound: NC1(c2ccc(-c3nc4ccn5c(=O)[nH]nc5c4cc3-c3ccccc3)cc2)CCC1
In short: as §1

dasatinib = compound: Cc1nc(Nc2ncc(C(=O)Nc3c(C)cccc3Cl)s2)cc(N2CCN(CCO)CC2)n1 [dasatinib]
In short: as §1

[6] = compound: Cn1cc(-c2ccc3c(c2)CCN3C(=O)Cc2cccc(C(F)(F)F)c2)c2c(N)ncnc21
In short: as §1

Measured: log2 fold change

DYNLT3 (UniProt P51808)
inactive: nilotinib 0.012 | [1] 0.05 | [2] -0.077 | quisinostat -0.024 | tipifarnib 0.057 | [3] 0.07 | [4] -0.011 | [5] -0.059

DSTYK (UniProt Q6XUX3)
inactive: nilotinib -0.015 | [1] 0.037 | [2] -0.006 | quisinostat -0.124 | tipifarnib -0.081 | [3] -0.007 | [5] 0.383

DST isoform 3 (UniProt Q03001)
inactive: [5] -0.071

DPH2 (UniProt Q9BQC3)
inactive: nilotinib 0.021 | [1] 0.04 | dasatinib -0.001 | [2] -0.032 | [6] 0.048 | quisinostat -0.01 | tipifarnib 0.01 | [3] -0.004 | [4] 0.025 | [5] 0.04

DYNC1I2 isoform 2 (UniProt Q13409)
inactive: dasatinib -0.058 | [6] 0.046 | quisinostat -0.009 | [3] 0.024 | [4] -0.008 | [5] -0.025

DUSP14 (UniProt O95147)
inactive: dasatinib -0.19 | [6] -0.192 | [4] 0.041 | [5] -0.045

EFR3A (UniProt Q14156)
inactive: nilotinib -0.103 | [1] -0.016 | dasatinib -0.082 | [2] 0.059 | [6] 0.015 | tipifarnib 0.064 | [4] 0.037 | [5] -0.002

DYRK1A isoform 2 (UniProt Q13627)
inactive: quisinostat -0.095 | [3] 0.139 | [5] -0.047

DRAM2 (UniProt Q6UX65)
inactive: nilotinib 0.044 | [1] -0.007 | [2] -0.034 | quisinostat -0.036 | tipifarnib 0.137 | [3] -0.029 | [4] -0.042

EFCAB2 isoform 2 (UniProt Q5VUJ9)
inactive: nilotinib -0.078 | [1] -0.065 | [2] 0 | quisinostat 0.101 | tipifarnib -0.099 | [3] -0.072 | [5] -0.027

Two records drawn at random from those above, as already listed:
EFCAB2 isoform 2 (UniProt Q5VUJ9)
inactive: nilotinib -0.078 | [1] -0.065 | [2] 0 | quisinostat 0.101 | tipifarnib -0.099 | [3] -0.072 | [5] -0.027

DRAM2 (UniProt Q6UX65)
inactive: nilotinib 0.044 | [1] -0.007 | [2] -0.034 | quisinostat -0.036 | tipifarnib 0.137 | [3] -0.029 | [4] -0.042

(continued)

DSCAML1 (UniProt Q8TD84)
inactive: nilotinib -0.132 | [1] -0.05 | [2] 0.01 | quisinostat -0.111 | tipifarnib 0.116 | [3] 0.067 | [4] 0.064

DYSF isoform 13 (UniProt O75923)
inactive: dasatinib 0.067 | [6] -0.05 | quisinostat -0.057 | [3] -0.015 | [4] 0.001 | [5] -0.1

DPYSL3 isoform 2 (UniProt Q14195)
inactive: quisinostat 0.003 | [3] 0.141

EFCAB3 (UniProt Q8N7B9)
inactive: quisinostat 0.213 | [3] 0.033 | [4] -0.093 | [5] 0.163

DUSP19 (UniProt Q8WTR2)
inactive: nilotinib -0.065 | [1] 0.116 | [2] -0.35 | quisinostat -0.224 | tipifarnib -0.41 | [3] 0.022 | [4] -0.078 | [5] 0.004

DPY19L3 (UniProt Q6ZPD9)
inactive: quisinostat -0.103 | [3] 0.034 | [4] 0.045
active: [5] -0.683

DYNC2H1 isoform 2 (UniProt Q8NCM8)
inactive: nilotinib 0.023 | [1] -0.005 | dasatinib -0.125 | [2] -0.014 | [6] 0.17 | tipifarnib -0.049 | [4] -0.034 | [5] -0.079

DZIP3 (UniProt Q86Y13)
inactive: [5] 0.015

DTWD2 (UniProt Q8NBA8)
inactive: nilotinib -0.016 | [1] -0.038 | [2] 0.008 | quisinostat -0.048 | tipifarnib -0.025 | [3] -0.017 | [4] 0.043 | [5] -0.019

DSC2 (UniProt Q02487)
inactive: dasatinib -0.137 | [6] -0.002 | quisinostat 0.069 | [3] 0.035 | [5] 0.012

DTD2 (UniProt Q96FN9)
inactive: dasatinib 0.097 | [6] -0.023 | quisinostat 0.054 | [3] 0.047 | [4] -0.047 | [5] 0.084

DUSP22 isoform 2 (UniProt Q9NRW4)
inactive: nilotinib -0.039 | [1] -0.073 | dasatinib -0.022 | [2] 0.064 | [6] -0.001 | tipifarnib 0.038 | [4] 0.036 | [5] 0.109

EEF2KMT (UniProt Q96G04)
inactive: nilotinib -0.079 | [1] 0.25 | dasatinib -0.004 | [2] 0.166 | [6] -0.088 | quisinostat -0.133 | tipifarnib -0.269 | [3] 0 | [5] 0.048

DPF3 isoform 3 (UniProt Q92784)
inactive: nilotinib 0.147 | [1] 0.06 | [2] 0.01 | tipifarnib 0.069

DVL3 (UniProt Q92997)
inactive: nilotinib 0.017 | [1] 0.057 | [2] -0.073 | quisinostat 0.095 | tipifarnib 0.025 | [3] 0.026 | [4] -0.052 | [5] -0.003

DUSP13 isoform 4 (UniProt Q9UII6)
inactive: [5] 0.003

DPF1 isoform 2 (UniProt Q92782)
inactive: dasatinib -0.46 | [6] 0.467 | quisinostat -0.033 | [3] 0.001 | [4] 0.096 | [5] -0.091

DPM3 isoform 2 (UniProt Q9P2X0)
inactive: nilotinib 0.037 | [1] -0.18 | [2] 0.121 | quisinostat 0.098 | tipifarnib -0.006 | [3] -0.143 | [4] 0 | [5] 0.041

DUT (UniProt H0YMP1)
inactive: [4] -0.207

EID1 (UniProt Q9Y6B2)
inactive: nilotinib 0.067 | [1] 0.085 | dasatinib -0.306 | [2] 0.05 | [6] 0.32 | tipifarnib 0.021 | [5] 0.133

DYNC1I1 (UniProt O14576)
inactive: dasatinib -0.008 | [6] -0.03 | [4] 0.071 | [5] -0.034

DRAP1 (UniProt E9PQX9)
inactive: dasatinib -0.275 | [6] 0.028 | [4] 0.032

EEPD1 (UniProt Q7L9B9)
inactive: quisinostat 0.071 | [3] -0.138

DTL (UniProt Q9NZJ0)
active: quisinostat -0.227
inactive: nilotinib 0.005 | [1] -0.022 | dasatinib 0.044 | [2] -0.052 | [6] 0.066 | tipifarnib 0.036 | [3] 0.025 | [5] 0.048

EGLN2 (UniProt Q96KS0)
inactive: quisinostat 0.103 | [3] -0.17
